Measurements from the supplement of paper PMC8728848.
The list shows a part of the results.

Key:
Test in all cases: glycan array binding signal (z-score within array); higher = stronger binding
Conditions in all cases: glycan notation: IUPAC condensed, linker removed
[1] = biological target: Neu5Ac(a2-3)Gal(b1-3)GalNAc
In short: (§1)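 Glycan array data came from 3228 arrays in the Consortium for Functional Glycomics database, and only arrays with an available protein sequence were kept. Glycan names were put into IUPAC-condensed notation, and columns mapping to the same glycan were averaged. The binding signal is a within-array Z-score, averaged across arrays of one protein sequence run at different concentrations or buffers and across linkers. A negative Z-score can be read as non-binding.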

[2] = biological target: Neu5Ac(a2-3)Gal(b1-3)GalNAc(b1-3)Gal(a1-4)Gal(b1-4)Glc
In short: as §1

[3] = biological target: Neu5Ac(a2-3)Gal(b1-3)GalNAc(b1-4)[Neu5Ac(a2-3)]Gal(b1-4)Glc
In short: as §1

[4] = biological target: Neu5Ac(a2-3)Gal(b1-3)GalNAc(b1-4)[Neu5Ac(a2-8)Neu5Ac(a2-3)]Gal(b1-4)Glc
In short: as §1

[5] = biological target: Neu5Ac(a2-3)Gal(b1-3)GalNAc6S
In short: as §1

[6] = biological target: Neu5Ac(a2-3)Gal(b1-3)GlcNAc
In short: as §1

[7] = biological target: Neu5Ac(a2-3)Gal(b1-3)GlcNAc(b1-2)Man
In short: as §1

[8] = biological target: Neu5Ac(a2-3)Gal(b1-3)GlcNAc(b1-2)Man(a1-3)[GlcNAc(b1-4)][Neu5Ac(a2-3)Gal(b1-3)GlcNAc(b1-2)Man(a1-6)]Man(b1-4)GlcNAc(b1-4)GlcNAc
In short: as §1

[9] = biological target: Neu5Ac(a2-3)Gal(b1-3)GlcNAc(b1-2)Man(a1-3)[Neu5Ac(a2-3)Gal(b1-3)GlcNAc(b1-2)Man(a1-6)]Man(b1-4)GlcNAc(b1-4)GlcNAc
In short: as §1

[10] = biological target: Neu5Ac(a2-3)Gal(b1-3)GlcNAc(b1-2)[Neu5Ac(a2-3)Gal(b1-3)GlcNAc(b1-4)]Man(a1-6)[Neu5Ac(a2-3)Gal(b1-3)GlcNAc(b1-2)Man(a1-3)]Man(b1-4)GlcNAc(b1-4)GlcNAc
In short: as §1

[11] = biological target: Neu5Ac(a2-3)Gal(b1-3)GlcNAc(b1-3)Gal(b1-3)GlcNAc
In short: as §1

[12] = biological target: Neu5Ac(a2-3)Gal(b1-3)GlcNAc(b1-3)Gal(b1-4)GlcNAc
In short: as §1

[13] = biological target: Neu5Ac(a2-3)Gal(b1-3)GlcNAc(b1-3)GalNAc
In short: as §1

[14] = biological target: Neu5Ac(a2-3)Gal(b1-3)GlcNAc(b1-4)Gal(b1-4)Glc
In short: as §1

[15] = biological target: Neu5Ac(a2-3)Gal(b1-3)GlcNAc(b1-6)GalNAc
In short: as §1

[16] = biological target: Neu5Ac(a2-3)Gal(b1-3)GlcNAc6S
In short: as §1

[17] = biological target: Neu5Ac(a2-3)Gal(b1-3)[Fuc(a1-4)]GlcNAc
In short: as §1

[18] = biological target: Neu5Ac(a2-3)Gal(b1-3)[Fuc(a1-4)]GlcNAc(b1-3)Gal(b1-3)[Fuc(a1-4)]GlcNAc
In short: as §1

[19] = biological target: Neu5Ac(a2-3)Gal(b1-3)[Fuc(a1-4)]GlcNAc(b1-3)Gal(b1-4)[Fuc(a1-3)]GlcNAc
In short: as §1

[20] = biological target: Neu5Ac(a2-3)Gal(b1-3)[GlcNAc(b1-6)]GalNAc
In short: as §1

[21] = biological target: Neu5Ac(a2-3)Gal(b1-3)[Neu5Ac(a2-6)]GalNAc
In short: as §1

[22] = biological target: Neu5Ac(a2-3)Gal(b1-3)[Neu5Ac(a2-6)]GlcNAc(b1-3)[Fuc(a1-3)[Gal(b1-4)]GlcNAc(b1-6)]Gal(b1-4)Glc
In short: as §1

[23] = biological target: Neu5Ac(a2-3)Gal(b1-3)]Neu5Ac(a2-3)Gal(b1-4)]GlcNAc
In short: as §1

Neu5Ac(a2-3)Gal(b1-4)Glc = biological target: Neu5Ac(a2-3)Gal(b1-4)Glc
In short: as §1

[24] = biological target: Neu5Ac(a2-3)Gal(b1-4)GlcNAc
In short: as §1

[25] = biological target: Neu5Ac(a2-3)Gal(b1-4)GlcNAc(b1-2)Man
In short: as §1

[26] = biological target: Neu5Ac(a2-3)Gal(b1-4)GlcNAc(b1-2)Man(a1-3)[GlcNAc(b1-4)][Neu5Ac(a2-3)Gal(b1-4)GlcNAc(b1-2)Man(a1-6)]Man(b1-4)GlcNAc(b1-4)GlcNAc
In short: as §1

[27] = biological target: Neu5Ac(a2-3)Gal(b1-4)GlcNAc(b1-2)Man(a1-3)[Neu5Ac(a2-3)Gal(b1-4)GlcNAc(b1-2)Man(a1-6)]Man(b1-4)GlcNAc(b1-4)GlcNAc
In short: as §1

[28] = biological target: Neu5Ac(a2-3)Gal(b1-4)GlcNAc(b1-2)Man(a1-3)[Neu5Ac(a2-3)Gal(b1-4)GlcNAc(b1-2)Man(a1-6)]Man(b1-4)GlcNAc(b1-4)[Fuc(a1-6)]GlcNAc
In short: as §1

[29] = biological target: Neu5Ac(a2-3)Gal(b1-4)GlcNAc(b1-2)Man(a1-3)[Neu5Ac(a2-6)Gal(b1-4)GlcNAc(b1-2)Man(a1-6)]Man(b1-4)GlcNAc(b1-4)GlcNAc
In short: as §1

[30] = biological target: Neu5Ac(a2-3)Gal(b1-4)GlcNAc(b1-2)[Neu5Ac(a2-3)Gal(b1-4)GlcNAc(b1-4)]Man(a1-3)[GlcNAc(b1-4)][Neu5Ac(a2-3)Gal(b1-4)GlcNAc(b1-2)[Neu5Ac(a2-3)Gal(b1-4)GlcNAc(b1-6)]Man(a1-6)]Man(b1-4)GlcNAc(b1-4)GlcNAc
In short: as §1

[31] = biological target: Neu5Ac(a2-3)Gal(b1-4)GlcNAc(b1-2)[Neu5Ac(a2-3)Gal(b1-4)GlcNAc(b1-4)]Man(a1-3)[GlcNAc(b1-4)][Neu5Ac(a2-3)Gal(b1-4)GlcNAc(b1-4)Man(a1-6)]Man(b1-4)GlcNAc(b1-4)GlcNAc
In short: as §1

[32] = biological target: Neu5Ac(a2-3)Gal(b1-4)GlcNAc(b1-2)[Neu5Ac(a2-3)Gal(b1-4)GlcNAc(b1-6)]Man(a1-6)[Neu5Ac(a2-3)Gal(b1-4)GlcNAc(b1-2)Man(a1-3)][GlcNAc(b1-4)]Man(b1-4)GlcNAc(b1-4)GlcNAc
In short: as §1

[33] = biological target: Neu5Ac(a2-3)Gal(b1-4)GlcNAc(b1-3)Gal
In short: as §1

[34] = biological target: Neu5Ac(a2-3)Gal(b1-4)GlcNAc(b1-3)Gal(b1-3)GlcNAc
In short: as §1

[35] = biological target: Neu5Ac(a2-3)Gal(b1-4)GlcNAc(b1-3)Gal(b1-4)GlcNAc
In short: as §1

[36] = biological target: Neu5Ac(a2-3)Gal(b1-4)GlcNAc(b1-3)Gal(b1-4)GlcNAc(b1-2)Man(a1-3)[Neu5Ac(a2-3)Gal(b1-4)GlcNAc(b1-3)Gal(b1-4)GlcNAc(b1-2)Man(a1-6)]Man(b1-4)GlcNAc(b1-4)GlcNAc
In short: as §1

[37] = biological target: Neu5Ac(a2-3)Gal(b1-4)GlcNAc(b1-3)Gal(b1-4)GlcNAc(b1-3)Gal(b1-4)GlcNAc
In short: as §1

[38] = biological target: Neu5Ac(a2-3)Gal(b1-4)GlcNAc(b1-3)Gal(b1-4)GlcNAc(b1-3)Gal(b1-4)GlcNAc(b1-2)Man(a1-3)[Neu5Ac(a2-3)Gal(b1-4)GlcNAc(b1-3)Gal(b1-4)GlcNAc(b1-3)Gal(b1-4)GlcNAc(b1-2)Man(a1-6)]GalNAc
In short: as §1

[39] = biological target: Neu5Ac(a2-3)Gal(b1-4)GlcNAc(b1-3)Gal(b1-4)GlcNAc(b1-3)GalNAc
In short: as §1

[40] = biological target: Neu5Ac(a2-3)Gal(b1-4)GlcNAc(b1-3)Gal(b1-4)GlcNAc(b1-3)[Neu5Ac(a2-3)Gal(b1-4)GlcNAc(b1-3)Gal(b1-4)GlcNAc(b1-6)]GalNAc
In short: as §1

[41] = biological target: Neu5Ac(a2-3)Gal(b1-4)GlcNAc(b1-3)Gal(b1-4)GlcNAc(b1-6)[Gal(b1-3)]GalNAc
In short: as §1

[42] = biological target: Neu5Ac(a2-3)Gal(b1-4)GlcNAc(b1-3)Gal(b1-4)[Fuc(a1-3)]GlcNAc
In short: as §1

[43] = biological target: Neu5Ac(a2-3)Gal(b1-4)GlcNAc(b1-3)GalNAc
In short: as §1

[44] = biological target: Neu5Ac(a2-3)Gal(b1-4)GlcNAc(b1-3)[Neu5Ac(a2-3)Gal(b1-4)GlcNAc(b1-6)]GalNAc
In short: as §1

B1: Aap arpt (Staphylococcus epidermidis) (protein)
chain: NNEAPQMSSTLQAEEGSNAEAPQSEPTKAEEGGNAEAAQSEPTKAEEGGNAEAPQSEPTKAEEGGNAEAAQSEPTKTEEGSNVKAAQSEPTKAEEGSNAEAPQSEPTKTEEGSNAKAAQSEPTKAEEGGNAEAAQSEPTKTEEGSNAEAPQSEPTKAEEGGYAEAPQSEPTKTEEGGNAEAPNVPTIKA
With B1 as the binder, how does the “glycan array binding signal (z-score)” value [1] read?
Its value is 0.205.

And the “glycan array binding signal (z-score)” value [2]?
Its value is 1.83.

And the “glycan array binding signal (z-score)” value [3]?
Its value is -1.39.

What about the “glycan array binding signal (z-score)” value [4] of the same binder?
Its value is -0.185.

What about the “glycan array binding signal (z-score)” value [5] of the same binder?
The value was 0.46.

And the “glycan array binding signal (z-score)” value [6]?
The value was -0.693.

What about the “glycan array binding signal (z-score)” value [7] of the same binder?
The value was -0.298.

What about the “glycan array binding signal (z-score)” value [8] of the same binder?
Its value is 0.868.

What about the “glycan array binding signal (z-score)” value [9] of the same binder?
Its value is -0.979.

What about the “glycan array binding signal (z-score)” value [10] of the same binder?
Its value is -0.309.

What about the “glycan array binding signal (z-score)” value [11] of the same binder?
The value was -0.914.

What about the “glycan array binding signal (z-score)” value [12] of the same binder?
The value was -0.171.

And the “glycan array binding signal (z-score)” value [13]?
The value was 0.983.

And the “glycan array binding signal (z-score)” value [14]?
The value was -1.29.

And the “glycan array binding signal (z-score)” value [15]?
The value was 0.52.

And the “glycan array binding signal (z-score)” value [16]?
The value was 0.561.

What about the “glycan array binding signal (z-score)” value [17] of the same binder?
The value was -0.52.

And the “glycan array binding signal (z-score)” value [18]?
The value was 0.827.

What about the “glycan array binding signal (z-score)” value [19] of the same binder?
The value was 0.571.

What about the “glycan array binding signal (z-score)” value [20] of the same binder?
The value was 0.285.

And the “glycan array binding signal (z-score)” value [21]?
The value was -0.022.

What about the “glycan array binding signal (z-score)” value [22] of the same binder?
Its value is 0.084.

What about the “glycan array binding signal (z-score)” value [23] of the same binder?
Its value is 2.21.

What about the “glycan array binding signal (z-score)” value (Neu5Ac(a2-3)Gal(b1-4)Glc) of the same binder?
Its value is 1.58.

What about the “glycan array binding signal (z-score)” value [24] of the same binder?
The value was -0.774.

And the “glycan array binding signal (z-score)” value [25]?
The value was -0.95.

What about the “glycan array binding signal (z-score)” value [26] of the same binder?
The value was 1.15.

What about the “glycan array binding signal (z-score)” value [27] of the same binder?
Its value is 3.

And the “glycan array binding signal (z-score)” value [28]?
Its value is 1.48.

What about the “glycan array binding signal (z-score)” value [29] of the same binder?
Its value is -0.856.

And the “glycan array binding signal (z-score)” value [30]?
Its value is -1.68.

And the “glycan array binding signal (z-score)” value [31]?
Its value is -0.462.

What about the “glycan array binding signal (z-score)” value [32] of the same binder?
Its value is -0.557.

And the “glycan array binding signal (z-score)” value [33]?
The value was 0.66.

What about the “glycan array binding signal (z-score)” value [34] of the same binder?
Its value is -0.565.

What about the “glycan array binding signal (z-score)” value [35] of the same binder?
Its value is -1.09.

And the “glycan array binding signal (z-score)” value [36]?
The value was -1.28.

And the “glycan array binding signal (z-score)” value [37]?
The value was 0.424.

And the “glycan array binding signal (z-score)” value [38]?
Its value is -0.499.

And the “glycan array binding signal (z-score)” value [39]?
The value was 0.687.

What about the “glycan array binding signal (z-score)” value [40] of the same binder?
Its value is -0.338.

What about the “glycan array binding signal (z-score)” value [41] of the same binder?
Its value is -0.491.

And the “glycan array binding signal (z-score)” value [42]?
Its value is -0.571.

What about the “glycan array binding signal (z-score)” value [43] of the same binder?
Its value is -0.74.

And the “glycan array binding signal (z-score)” value [44]?
Its value is -0.333.
